Assay: Assessment of the strength of the joins on thermoplastic rubber (TR)
Conditions: 24 hours after bonding

**Q.** Which “failure mode of the join” value does the source give for C=C(C#N)C(=O)OCC [ethyl cyanoacrylate] here?
**A.** Its value is “cohesion failure in the rubber”.

**Q.** And the separation resistance (20 mm/min)?
**A.** Its separation resistance is 8.3 kN/m.

Source: patent publication US20040013614A1, “Acrylic-based adhesive composition” (priority 2000, published 2004)
